{"sequences": {"note": "The chains behind the UniProt entries cited, without tags or fusion partners. Where a name states a change or a piece, a line headed by the entry shows the natural chain unless it says otherwise. A line that says so, or that is headed by a name, gives the form on record, which may keep a tag or linker.", "Isoform 2 of HCLS1-associated protein X-1 (O00165-2, form named)": "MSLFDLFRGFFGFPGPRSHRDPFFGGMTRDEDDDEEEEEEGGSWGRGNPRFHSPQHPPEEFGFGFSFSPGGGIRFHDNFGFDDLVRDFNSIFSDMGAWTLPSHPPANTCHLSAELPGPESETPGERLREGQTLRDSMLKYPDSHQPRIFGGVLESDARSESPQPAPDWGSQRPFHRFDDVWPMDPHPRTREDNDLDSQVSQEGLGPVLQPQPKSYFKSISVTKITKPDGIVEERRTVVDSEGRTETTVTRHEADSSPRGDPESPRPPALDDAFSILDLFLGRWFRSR"}, "source": "paper PMC5216374", "key": {"[1]": {"target": "T1, full length TRIM14 ORF tagged at the C-terminus with 3xFLAG (human) (UniProt Q14142)", "T1 sequence": "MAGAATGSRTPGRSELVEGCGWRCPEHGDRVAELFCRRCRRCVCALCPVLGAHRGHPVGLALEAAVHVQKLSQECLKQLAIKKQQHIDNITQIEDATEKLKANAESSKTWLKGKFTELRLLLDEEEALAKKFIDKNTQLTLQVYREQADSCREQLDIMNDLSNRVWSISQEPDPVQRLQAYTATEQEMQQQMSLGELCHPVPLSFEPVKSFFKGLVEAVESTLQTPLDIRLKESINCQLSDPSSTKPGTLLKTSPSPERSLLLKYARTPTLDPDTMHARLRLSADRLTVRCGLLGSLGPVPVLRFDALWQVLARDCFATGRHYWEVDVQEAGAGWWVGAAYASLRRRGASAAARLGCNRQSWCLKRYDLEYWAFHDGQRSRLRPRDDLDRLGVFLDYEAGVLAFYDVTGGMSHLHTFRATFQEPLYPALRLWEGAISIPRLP", "assay": "co-IP; HEK293T whole-cell extracts, FLAG-TRIM14 immunoprecipitated with anti-FLAG antibody, endogenous partners detected by blot; empty FLAG vector as control"}, "[2]": {"target": "T2, FLAG-TRIM14 ectopically expressed in H1395 cells (human) (UniProt Q14142)", "T2 sequence": "T1 sequence", "assay": "co-IP; H1395 cells with ectopically expressed FLAG-TRIM14; endogenous p62 detected by blot"}}, "note": "Results are given in words; binding and its absence hold for the method and conditions named. Binding seen in cells or lysates may run through a third protein. Some binding calls cover weakened binding; strength is not graded here. Where a sequence is shown, tags or fusion partners need not be part of it."}
{"substance": "Isoform 2 of HCLS1-associated protein X-1 (from UniProt O00165-2 1-287)", "values": [{"measurement": "binding", "setting": "[1]", "value": "binds"}]}
{"substance": "Sequestosome-1 p62 (from UniProt Q13501 1-440)", "values": [{"measurement": "binding", "setting": "[1]", "value": "binds"}]}
{"substance": "endogenous p62 of H1395 cells (from UniProt Q13501 1-440)", "values": [{"measurement": "binding", "setting": "[2]", "value": "binds"}]}
